# Results published in PubChem BioAssay AID1508600 (Functional Genomics Laboratory (NCATS/FGL), 2020).
# Screen size: about 53,000 sequences; about 3,700 (7%) were called active.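 How the source made its calls: active means gene knockdowns whose robust z-score for IL-1 alpha signal is at least 2 or at most -2, so actives lie on both sides; inactive means the rest.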 The list shows a part of the results.
# Assay: Components of the Cytosolic LPS Sensing Pathway: Gene Identification via Genome-wide siRNA Screen;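 further: robust z of the log signal after scaling to non-targeting control siRNA wells of the plate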
# Details: RAW264.7 macrophages, IL-1a HTRF, actives lie on both sides, screened at 100 nM (by protocol), cells primed 5 h with Pam3CSK4 first
# How it was run: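 RAW264.7 mouse macrophages reverse-transfected with single siRNAs (100 nM final) for 48h, primed with Pam3CSK4 for 5 hours, then transfected with LipidA for 24 hour. Supernatant IL-1a read by HTRF; values normalized to negative-control median, log-transformed robust z-scores.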
row,Sequence,z-score
1,GGUAUAAAGACUGUGUAAATT against Zfp979,inactive: -0.84
2,GCGGUACUGUCAGUGCAAUTT against Cyth1,inactive: 0.307
3,GCACCGGCUUUACUAAUGGTT against Ppnr,inactive: 0.563
4,GGACCAGAAAUACAUUUUCTT against Arhgef2,inactive: -0.288
5,GGAGGACAAUGAUUUCCGATT against Ndst3,inactive: -0.363
6,GAGAUGGAAAGUGGUUUCUTT against Olfr1226,inactive: 0.543
7,GGAAUAAGAUGAAAUACCCTT against Tmeff2,inactive: 0.00419
8,GCCACAUGGUUAAUAAGAGTT against Postn,inactive: -1.5
9,GCGAGUAGAAUUCUUUAACTT against Med12,inactive: 1.6
10,GGCUGAUGAGUAUAGUUUATT against Serpini2,inactive: 0.66
11,GGCAAAUGUACUAAAAUGATT against Gpr34,inactive: 0.764
12,GCGAUGAAAUCUAAAGCCATT against Gpr146,inactive: 0.0035
13,GGAAGAGAGCAUUAAGCCCTT against Eif3k,inactive: 0.283
14,CCCUAACUACUUCAUGAAUTT against Paip1,active: -2.11
15,GGAUCUCAUGGAGGAGAAUTT against Stbd1,inactive: 1.47
16,GCUCUGUGUUCUUAGGAGATT against Gaa,inactive: 0.482
17,GCCAUGGCAUAAAAACUGGTT against P2rx6,inactive: -0.329
18,GGCAGAAAUCAAUGACUUGTT against Map2k7,inactive: 0.937
19,GGAGUGACCACAACAAUUGTT against Slc39a12,inactive: -2
20,GGAGAAGAAAAAGAAGGACTT against Pak1,inactive: -0.932
21,GGCUUAUGACCAUGACAGCTT against Tenm2,inactive: -0.565
22,GGUACUAUGGUUAAGCAGUTT against Dnd1,inactive: -1.1
23,GGAAGGACUUAAACUUCAUTT against Csf2ra,inactive: -0.268
24,GGCCAUGGACAAAAUGUACTT against Tfap2a,inactive: 0.473
25,GGUACCCACCUUCGCUUAUTT against Ferd3l,inactive: -0.0511
26,GGAAUCGAAACCAAUGUGUTT against Il1rl2,inactive: -0.471
27,CGAUGAAUCAGAUUACUUUTT against Trip4,inactive: 0.456

# Reformatted with bars between the fields: part of the list above
row | Sequence | z-score
13 | GGAAGAGAGCAUUAAGCCCTT against Eif3k | inactive: 0.283
14 | CCCUAACUACUUCAUGAAUTT against Paip1 | active: -2.11
15 | GGAUCUCAUGGAGGAGAAUTT against Stbd1 | inactive: 1.47

# Remaining list, next part:

row,Sequence,z-score
1,CGAAUUAAUCUCACAGGAGTT against Vps53,inactive: 0.44
2,CGACAUGUACGCUUUUUGUTT against Usp44,inactive: -0.894
3,CGCCAGAGUGCAUAGUCUUTT against Mindy2,inactive: 1.94
4,CCUGCUAAGAGAGUACUAUTT against Pglyrp2,inactive: 1.51
5,GGUGAUGAAAAAGGACAGCTT against Oit1,inactive: 0.0982
6,GUCUAUCGAUAUUCCAAAATT against D130007C19Rik,inactive: 1.96
7,GGCUCACACUGGCUGAAGATT against H2-M10.4,inactive: 0.0719
8,GCUCCUCUGUAUAAAUUUUTT against Zfp512,inactive: 0.706
9,GGCUAACCACCCUCUUUCUTT against Rtn4rl1,inactive: -1.85
10,GCGUAUUUGGUGUUAAAAATT against Iars,inactive: 0.417
11,CCUUAUUUGGAUAUGCAGUTT against F2rl3,inactive: -0.0953
12,GUUUUGGAACUUGUGAUGATT against Wfdc18,inactive: -1.59
13,GGAGACUGAAGGAAAUUAATT against 2810025M15Rik,inactive: 0.774
14,GGACAGGGAAAAGUCCCAUTT against St6galnac6,inactive: 0.515
15,GCAGCGAGUACUAUAUCCGTT against Lmtk3,inactive: 1.77
16,GGUUAUCAGAAGUGGAGAGTT against Reg3d,inactive: 0.387
17,GGAGGUGGAAUCUUUCCCUTT against Aplp1,inactive: -1.68
18,CCGGUAAUGGUGAUAAUUGTT against Sall2,inactive: -0.729
19,GGGCAUCUAUCUAUUUACCTT against Mrpl55,inactive: 0.203
20,GGAUUUGUGAAGCAGAUAATT against Serinc3,inactive: -0.791
21,GGAUGACUGUUACAUUAGGTT against Samd5,inactive: 0.227
22,GGGAGUUUAUUCAAAAGUGTT against Nrbp1,inactive: 1.12
23,CGAGGAUGAGUUCAGUGAGTT against Pdcl3,inactive: -1.19
24,GGGAGUGAUUUAAAGUUUCTT against L3mbtl3,inactive: -0.569
25,GGACAUCUAUGAGUUUAGCTT against Plekhg2,inactive: -0.794
26,GGUCAAUGUUUUAGUCAUATT against Olfr1138,inactive: -0.000857
